# About 6,100 (1.1%) of roughly 580,000 compounds were called active. The inconclusive results got no clear call from the source; some entries with a clear call stand among them for comparison. Calls follow the shape of the dose curve; as a rule, active = well fitted inhibition curve with a large enough effect; inconclusive = small, poorly fitted or top-dose-only effect, or another doubt; inactive = no such curve, though single readings can be large or run the other way. Where the call is inconclusive, the potency comes from a doubtful curve fit.
# The chains behind the UniProt entries cited, without tags or fusion partners. Where a name states a change or a piece, a line headed by the entry shows the natural chain unless it says otherwise.
# UniProt P18054: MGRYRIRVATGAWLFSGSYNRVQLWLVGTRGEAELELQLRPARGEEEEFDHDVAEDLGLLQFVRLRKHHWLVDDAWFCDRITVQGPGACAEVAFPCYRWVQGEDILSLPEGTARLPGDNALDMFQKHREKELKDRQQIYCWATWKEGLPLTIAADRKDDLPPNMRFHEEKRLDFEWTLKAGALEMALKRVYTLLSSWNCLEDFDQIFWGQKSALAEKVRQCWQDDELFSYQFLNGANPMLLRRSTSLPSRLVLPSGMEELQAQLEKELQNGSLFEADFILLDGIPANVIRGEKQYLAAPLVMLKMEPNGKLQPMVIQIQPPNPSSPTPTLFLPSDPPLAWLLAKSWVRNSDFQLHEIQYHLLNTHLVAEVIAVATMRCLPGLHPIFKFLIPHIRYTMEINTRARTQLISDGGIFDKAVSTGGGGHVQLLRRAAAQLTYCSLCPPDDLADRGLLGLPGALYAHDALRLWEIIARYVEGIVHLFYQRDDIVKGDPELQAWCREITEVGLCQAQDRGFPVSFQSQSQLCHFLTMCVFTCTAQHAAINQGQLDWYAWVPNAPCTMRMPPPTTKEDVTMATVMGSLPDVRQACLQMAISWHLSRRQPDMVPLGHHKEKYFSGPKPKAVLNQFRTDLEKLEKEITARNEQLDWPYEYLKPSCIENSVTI
# Target: Polyunsaturated fatty acid lipoxygenase ALOX12 (Homo sapiens) (UniProt P18054)
# Test: Primary qHTS assay for inhibitors of human arachidonate 12S-lipoxygenase (ALOX12): Round 2
# Settings: purified 12hLO, xylenol orange hydroperoxide absorbance; activity change, negative = inhibition: at 108 µM (top of the series) unless noted
# Procedure, shortened: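 Hydroperoxide product was detected by ferrous iron/xylenol orange as the 573 to 405 nm absorbance ratio. Arachidonic acid at 40 uM (final) was turned over for 30 min at room temperature by 150 nM human 12hLO, pH 7.0 Hepes buffer, after 15 min compound preincubation.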
# % is scaled to controls: 0 for no effect and ±100 for the full control effect; potency is read from the fitted curve at half-maximal effect.
SMILES,Potency,"activity change, negative = inhibition"
Cn1c(=O)c(CCc2ccccc2)nc2cnc(N3CCOCC3)nc21,"inconclusive: 35.5 µM [inhibitor, partial curve, poor fit]",
CCn1c(/C=C/c2ccc(O)c(O)c2)nc2ccccc2c1=O,active: 14.1 µM,
Cc1ccccc1NCCC(=O)N(C)Cc1ccc(C(=O)NCC(F)(F)F)cc1,"inconclusive: 50.1 µM [inhibitor, partial curve, poor fit]",
CCNc1nc(Sc2ccc(C)cc2)cc(C(F)(F)F)n1,"inconclusive: 50.1 µM [inhibitor, partial curve, poor fit]",
CCc1c(C)nc2nc(NC(C)=O)[nH]n2c1=O,"inconclusive: 5.01 µM [inhibitor, full curve]",
O=c1[nH]c(C2CCN(Cc3ccc(C(F)(F)F)cc3)CC2)nn1Cc1ccccc1,,inactive: 19.9%
COc1cc(/C=C/C(=O)OCC(=O)NCc2cccs2)ccc1OCC#N,"inconclusive: 0.562 µM [inhibitor, full curve, poor fit]",
CN1CCN(C(=O)CCNc2nc(Cl)nc3nc[nH]c23)CC1,"inconclusive: 126 µM [inhibitor, partial curve, poor fit]",
O=[N+]([O-])c1c(Nc2ccccc2O)cc(N2CCOCC2)c2nonc12,"inconclusive: 39.8 µM [inhibitor, partial curve, poor fit]",
O=c1c2c(-c3ccc(Cl)cc3)noc2ncn1Cc1ccc(F)cc1Cl,,inconclusive: -44.9% [inhibitor]
O=S(=O)(Nc1cccc(-c2ccc(N3CCCC3)nn2)c1)c1cccc(C(F)(F)F)c1,,inactive: -64.2%
Cn1c(-c2cccc([N+](=O)[O-])c2)[n+](C)c2ccccc21,,inactive: 6.03%
C[C@H]1[C@@H]2[C@@H](O)C([C@H](C)C(=O)N(C)CCC#N)CC[C@@]2(C)CC[C@@H]1NC(=O)c1ccncc1 (some centres undefined),,inactive: 76.7% [at 176 µM]
COc1ccc(C(=O)CSc2nc(C)cc(C)c2C(=O)Nc2ccccc2C)cc1,"inconclusive: 56.2 µM [inhibitor, partial curve, poor fit]",
c1ccc(Cc2c(-c3ccccc3)nc3c4ccccc4ccn23)cc1,"inconclusive: 39.8 µM [inhibitor, partial curve, poor fit]",
CCc1ccc(CN(C)C(=O)Cn2cnc3c2c(=O)n(C)c(=O)n3C)cc1,,inactive: -21.2%
CCc1ccc2c(c1)C(c1ccc([N+](=O)[O-])cc1)=NNC(c1ccc(Br)cc1)=N2,,inactive: 2.65%
O=C1C=CN2CCCCC2CC1 (centres undefined),"inconclusive: 50.1 µM [inhibitor, partial curve, poor fit]",
CCCCCCNc1nc(NCc2ccco2)nc(OCC)n1,,inactive: 13.9% [at 57.4 µM]

# Shown with bars between the fields: 2 of the compounds above
SMILES | Potency | activity change, negative = inhibition
COc1ccc(C(=O)CSc2nc(C)cc(C)c2C(=O)Nc2ccccc2C)cc1 | inconclusive: 56.2 µM [inhibitor, partial curve, poor fit] | 
c1ccc(Cc2c(-c3ccccc3)nc3c4ccccc4ccn23)cc1 | inconclusive: 39.8 µM [inhibitor, partial curve, poor fit] | 
